# The supplement of paper PMC8728848
# The list shows a part of the results.
# B1: Fap1 (Streptococcus parasanguis) (protein)
# chain: KATSKGTEEKQDSVRENLDKMISEAEVLNDMAARKLITLDAEQQLELMKSLVATQSQLEATKNLIGDPNATVADLQIAYTTLGNNTQALGNELIKLNPNGQIYAVLNNTEASRAATLRSTTTGTKTTFTISDFSNGGTQYYWAGGNANNLKNPISSISAVYDSATGKISWTVEYDPTTILKSPALKTLKTYTGIYIDTSSDSKLSTPTNVLIDGAATNPVTNFYGNGSKGIEYVSKGTTKGVTKHTITFDTAFSGRANDLADLEIKMLAATTLSDPHFYEDGSKGNYGRYNGQTAPYVIANDSGTAIGGYQVSGVNADSIPSDTT
# What was measured:
# Test in all cases: glycan array binding signal (z-score within array); higher = stronger binding
# Conditions in all cases: glycan notation: IUPAC condensed, linker removed
# [1] = molecular target: Gal(b1-4)GlcNAc(b1-6)GalNAc
# Summary of the method: (§1)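 The Consortium for Functional Glycomics database supplied 3228 glycan arrays, of which those lacking an available protein sequence were dropped. The binding signal, a within-array Z-score, was averaged across arrays of the same protein sequence and across linkers. Negative scores can be read as non-binding.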
# [2] = molecular target: Gal(b1-4)GlcNAc(b1-6)[Gal(b1-3)]GalNAc
# Summary of the method: as §1
# Gal3S(b1-3)GalNAc = molecular target: Gal3S(b1-3)GalNAc
# Summary of the method: as §1
# Gal3S(b1-3)GlcNAc = molecular target: Gal3S(b1-3)GlcNAc
# Summary of the method: as §1
# [3] = molecular target: Gal3S(b1-3)[Fuc(a1-4)]GlcNAc
# Summary of the method: as §1
# Gal3S(b1-4)Glc = molecular target: Gal3S(b1-4)Glc
# Summary of the method: as §1
# Gal3S(b1-4)Glc6S = molecular target: Gal3S(b1-4)Glc6S
# Summary of the method: as §1
# Gal3S(b1-4)GlcNAc = molecular target: Gal3S(b1-4)GlcNAc
# Summary of the method: as §1
# Gal3S(b1-4)GlcNAc6S = molecular target: Gal3S(b1-4)GlcNAc6S
# Summary of the method: as §1
# [4] = molecular target: Gal3S(b1-4)[Fuc(a1-3)]Glc
# Summary of the method: as §1
# Gal3S6S(b1-4)GlcNAc = molecular target: Gal3S6S(b1-4)GlcNAc
# Summary of the method: as §1
# Gal3S6S(b1-4)GlcNAc6S = molecular target: Gal3S6S(b1-4)GlcNAc6S
# Summary of the method: as §1
# Gal4S(b1-4)GlcNAc = molecular target: Gal4S(b1-4)GlcNAc
# Summary of the method: as §1
# Gal4S6S(b1-4)GlcNAc = molecular target: Gal4S6S(b1-4)GlcNAc
# Summary of the method: as §1
# Gal6S(b1-4)Glc = molecular target: Gal6S(b1-4)Glc
# Summary of the method: as §1
# Gal6S(b1-4)Glc6S = molecular target: Gal6S(b1-4)Glc6S
# Summary of the method: as §1
# Gal6S(b1-4)GlcNAc = molecular target: Gal6S(b1-4)GlcNAc
# Summary of the method: as §1
# GalNAc(a1-3)Gal = molecular target: GalNAc(a1-3)Gal
# Summary of the method: as §1
# GalNAc(a1-3)GalNAc = molecular target: GalNAc(a1-3)GalNAc
# Summary of the method: as §1
# [5] = molecular target: GalNAc(b1-3)Gal(a1-4)Gal(b1-4)GlcNAc
# Summary of the method: as §1
# GalNAc(b1-3)GalNAc = molecular target: GalNAc(b1-3)GalNAc
# Summary of the method: as §1
# GalNAc(b1-4)GlcNAc = molecular target: GalNAc(b1-4)GlcNAc
# Summary of the method: as §1
# Glc(a1-4)Glc = molecular target: Glc(a1-4)Glc
# Summary of the method: as §1
# Glc(a1-6)Glc(a1-6)Glc = molecular target: Glc(a1-6)Glc(a1-6)Glc
# Summary of the method: as §1
# Glc(b1-4)Glc = molecular target: Glc(b1-4)Glc
# Summary of the method: as §1
# Glc(b1-6)Glc = molecular target: Glc(b1-6)Glc
# Summary of the method: as §1
# GlcA(b1-3)Gal = molecular target: GlcA(b1-3)Gal
# Summary of the method: as §1
# GlcA(b1-6)Gal = molecular target: GlcA(b1-6)Gal
# Summary of the method: as §1
# [6] = molecular target: GlcNAc(a1-3)Gal(b1-4)GlcNAc
# Summary of the method: as §1
# [7] = molecular target: GlcNAc(a1-6)Gal(b1-4)GlcNAc
# Summary of the method: as §1
binder,measurement,setting,value
B1,glycan array binding signal (z-score),[1],0.546
same,glycan array binding signal (z-score),[2],-0.693
same,glycan array binding signal (z-score),Gal3S(b1-3)GalNAc,0.329
same,glycan array binding signal (z-score),Gal3S(b1-3)GlcNAc,-0.277
same,glycan array binding signal (z-score),[3],0.104
same,glycan array binding signal (z-score),Gal3S(b1-4)Glc,0.082
same,glycan array binding signal (z-score),Gal3S(b1-4)Glc6S,0.88
same,glycan array binding signal (z-score),Gal3S(b1-4)GlcNAc,-0.22
same,glycan array binding signal (z-score),Gal3S(b1-4)GlcNAc6S,0.499
same,glycan array binding signal (z-score),[4],0.384
same,glycan array binding signal (z-score),Gal3S6S(b1-4)GlcNAc,0.649
same,glycan array binding signal (z-score),Gal3S6S(b1-4)GlcNAc6S,1.8
same,glycan array binding signal (z-score),Gal4S(b1-4)GlcNAc,1.82
same,glycan array binding signal (z-score),Gal4S6S(b1-4)GlcNAc,0.462
same,glycan array binding signal (z-score),Gal6S(b1-4)Glc,-0.414
same,glycan array binding signal (z-score),Gal6S(b1-4)Glc6S,-0.521
same,glycan array binding signal (z-score),Gal6S(b1-4)GlcNAc,1.13
same,glycan array binding signal (z-score),GalNAc(a1-3)Gal,0.448
same,glycan array binding signal (z-score),GalNAc(a1-3)GalNAc,0.44
same,glycan array binding signal (z-score),[5],0.048
same,glycan array binding signal (z-score),GalNAc(b1-3)GalNAc,-0.059
same,glycan array binding signal (z-score),GalNAc(b1-4)GlcNAc,0.043
same,glycan array binding signal (z-score),Glc(a1-4)Glc,0.228
same,glycan array binding signal (z-score),Glc(a1-6)Glc(a1-6)Glc,-0.769
same,glycan array binding signal (z-score),Glc(b1-4)Glc,-0.611
same,glycan array binding signal (z-score),Glc(b1-6)Glc,-0.387
same,glycan array binding signal (z-score),GlcA(b1-3)Gal,-0.181
same,glycan array binding signal (z-score),GlcA(b1-6)Gal,-0.519
same,glycan array binding signal (z-score),[6],0.12
same,glycan array binding signal (z-score),[7],-0.16

# Two records picked at random from those above:
binder,measurement,setting,value
B1,glycan array binding signal (z-score),Gal6S(b1-4)GlcNAc,1.13
same,glycan array binding signal (z-score),Gal3S6S(b1-4)GlcNAc,0.649
